Holding throughout (assay): affinity purification with mass spectrometry
Experiment [1] deals with T1, GFP-COR28 (COLD REGULATED GENE 28) (Arabidopsis thaliana) (UniProt Q8L983).
T1 sequence: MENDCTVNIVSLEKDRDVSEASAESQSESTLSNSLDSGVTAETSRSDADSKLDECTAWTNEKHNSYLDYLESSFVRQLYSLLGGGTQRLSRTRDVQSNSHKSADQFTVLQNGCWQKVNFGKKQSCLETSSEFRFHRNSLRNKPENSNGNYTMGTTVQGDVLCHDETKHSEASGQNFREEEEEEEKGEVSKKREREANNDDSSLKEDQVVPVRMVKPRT

Amino acid sequences for entries named in this document (tags omitted). A change or cut given only in a name is not applied to a line headed by its entry.
UniProt Q8L8T7: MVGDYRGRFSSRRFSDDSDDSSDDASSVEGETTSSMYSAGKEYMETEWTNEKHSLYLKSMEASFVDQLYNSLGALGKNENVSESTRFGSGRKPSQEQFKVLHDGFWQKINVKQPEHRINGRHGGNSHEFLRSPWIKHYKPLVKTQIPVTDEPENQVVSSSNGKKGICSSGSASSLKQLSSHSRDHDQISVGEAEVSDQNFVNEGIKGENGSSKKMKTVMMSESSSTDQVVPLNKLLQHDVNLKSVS

The target in experiment [2] is T2, RVE8-HFC (REVEILLE 8 with 3x-FLAG-6x-His C-terminal tag) (Arabidopsis thaliana) (UniProt Q8RWU3).
T2 sequence: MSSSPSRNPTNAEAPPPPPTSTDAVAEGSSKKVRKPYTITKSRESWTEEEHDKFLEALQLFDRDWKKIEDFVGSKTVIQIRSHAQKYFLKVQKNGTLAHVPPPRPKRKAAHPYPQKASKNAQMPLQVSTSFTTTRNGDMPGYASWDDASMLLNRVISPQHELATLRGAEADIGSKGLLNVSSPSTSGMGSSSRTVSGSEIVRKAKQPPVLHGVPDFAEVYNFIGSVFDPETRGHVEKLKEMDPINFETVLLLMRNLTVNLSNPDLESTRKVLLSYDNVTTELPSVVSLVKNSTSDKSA

For experiment [3], the target named is YFP-COR27 (COLD REGULATED GENE 27) (Arabidopsis thaliana) (UniProt Q8L8T7).
Experiment [4] has as its target YFP-COR27 (COLD REGULATED GENE 27) (Arabidopsis thaliana), Q8L8T7. As to conditions: remark: other sources report otherwise.

Results are given in words; binding and its absence hold for the method and conditions named. Binding seen in cells or lysates may run through a third protein. Here binding means that the protein was enriched with, or labelled near, the bait; the list need not be complete. For some of these results: Tags and fused reporters may be left off the sequences shown.

B1: SUPPRESSOR OF PHYA-105 (SPA1) (protein, UniProt Q9SYX2 1-1029)
chain: MPVMERVAEETVATNNIQLKARVDDVPCNKLDARHNDMVIQSETANSDCPGSSAHRNVDLTKPPPPEEAAGAKLSVEELTLGNYRIVQGSNNTNVDSPRAGKFEHLYRLARGSAFRAGDGDLDSQPRDMDQMLSRIRQQLAGAPSERQNLKPFMSRRSDQNLEAFSERLRAAGENSIMNAPALISEGVQMKTPVSSSNFSQLLLKRAMKGKGVVGKNQETPPEFVSDQDLGSKEKKLDISKSPTPHDVLPLKSSPKGNGMVSHGDGNHSKSSIGISLREFLRSSYAKREKRHGLCLFRQLVELVDSAHSKRLFLLDLRPSLFTLVPSKKLRYIGNFGKNDLESDVDEDLNRRRPVVEESSSGGRDSKKRKMDLHLNSPGNQLQATSTGRPFKRKSPVIDLNMVDARNPDSCELQQQDYIKNLSVSSVSRKQSMSTWLEEQWYTCPEEINGEDIGEKSNIYALGVLLFELLCHCESGEMHAAMMADLRHRILPPTFLSKYPKEAGFCLWLLHPEPSSRPSARDILKSELICEDDSVKSTAAAEEISELLLHFLSSLEVQKKKKASKLLQDIQTLEDDIKEAERRYSSNVSLVRSHGAIEKRVQSSPLDEHCTTSSALFVPTANTDRLMSNIRQLEDAYFFMRSQINLSSSAATARSDKTLKDRDRCSENQNENQDMSTKGKSSDQLEVFFEGLCKFARYSKFETCGTIRSGDLLNSASVVCSLSFDPDEEHIAAAGISKKIKIFDFNAFMNESVGVHYPLVEMVNKSKLSCVCWNSYIKNYLASTDYDGVVQIWDAGTGQGFSQYTEHQKRAWSVDFSPSDPTKFVSGSDDCSVKLWSINEKRSLGTIWSPANVCCVQFSSYSNHLLAFGSADYKVYCYDLRYVKTPWCTLAGHEKAVSYVKFMDSETIVSASTDNSLKLWNLNKTNSSGLSPGACSLTYKGHTNQKNFVGLSVLDGYIACGSETNEVYSYYKSLPMPMTSYKFGSVDPISGNEYFDDNGQFVSSVCWRKKSNMLVAANSTGNMKLLKLV
Consider B1, for which the binding entry in experiment [1], in experiment [2] and in experiment [3] was “binds” in each case.

B2: SPA4, Q94BM7 1-794 (protein)
chain: MKGSSESSSRGLNNTSGVSEFCTDGSKSLSHIDYVRSLLGSHKEANLGGLDDDSIVRALECEDVSLRQWLDNPDRSVDAFECFHVFRQIVEIVNAAHSQGIVVHNVRPSCFVMSSFNNVSFIESASCSDSGSDEDATTKSREIGSSRQEEILSERRSKQQEEVKKQPFPMKQILAMEMSWYTSHEEDNGSLCNCASDIYRLGVLLFELFCPVSSREEKSRTMSSLRHRVLPPQILLNWPKEASFCLWLLHPEPSCRPSMSELLQSEFINEPRENLEEREAAMELRDRIEEQELLLEFLFLIQQRKQEAADKLQDTISLLSSDIDQVVKRQLVLQQKGRDVRSFLASRKRIRQGAETTAAEEENDDNSIDEESKLDDTLESTLLESSRLMRNLKKLESVYFATRYRQIKAATAAEKPLARYYSALSCNGRSSEKSSMSQPSKDPINDSRQGGWIDPFLEGLCKYLSFSKLRVKADLKQGDLLNSSNLVCAIGFDRDGEFFATAGVNKKIKIFECESIIKDGRDIHYPVVELASRSKLSGICWNSYIKSQVASSNFEGVVQVWDVARNQLVTEMKEHEKRVWSIDYSSADPTLLASGSDDGSVKLWSINQGVSIGTIKTKANICCVQFPSETGRSLAFGSADHKVYYYDLRNPKLPLCTMIGHHKTVSYVRFVDSSTLVSSSTDNTLKLWDLSMSISGINETPLHSFMGHTNVKNFVGLSVSDGYIATGSETNEVFVYHKAFPMPVLSYKFKTIDPVSELEVDDASQFISSVCWRGQSSTLVAANSTGNIKILEMV
As to B2, in experiment [4], the binding entry was “binds”.

The values are drawn from publication doi:10.1101/2022.05.16.492168.
